# Measured values published in paper PMC2686266.
# By UniProt entry, the sequences of proteins in these tests, tags left out. Where a name states a change or a piece, a line headed by the entry shows the natural chain unless it says otherwise. Chains listed by the source or under a name are the forms on record and can include a tag or linker. Residues count along the entry.
# GST fused to the C-terminal kinase domain of normal NIK1 (NSP-interacting kinase 1) (Q9LFS4, residues 297-638): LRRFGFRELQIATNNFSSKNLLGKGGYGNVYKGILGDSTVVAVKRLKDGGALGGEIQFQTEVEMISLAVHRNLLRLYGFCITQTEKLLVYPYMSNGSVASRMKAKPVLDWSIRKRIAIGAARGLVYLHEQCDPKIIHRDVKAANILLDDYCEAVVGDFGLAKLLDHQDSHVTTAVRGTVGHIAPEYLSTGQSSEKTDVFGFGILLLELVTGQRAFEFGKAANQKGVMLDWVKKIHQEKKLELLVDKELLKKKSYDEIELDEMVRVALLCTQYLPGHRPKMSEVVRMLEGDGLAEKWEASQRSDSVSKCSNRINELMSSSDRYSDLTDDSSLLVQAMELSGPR
# GST fused to the NIK1 kinase domain with Thr-474 replaced by aspartate (Q9LFS4, form named): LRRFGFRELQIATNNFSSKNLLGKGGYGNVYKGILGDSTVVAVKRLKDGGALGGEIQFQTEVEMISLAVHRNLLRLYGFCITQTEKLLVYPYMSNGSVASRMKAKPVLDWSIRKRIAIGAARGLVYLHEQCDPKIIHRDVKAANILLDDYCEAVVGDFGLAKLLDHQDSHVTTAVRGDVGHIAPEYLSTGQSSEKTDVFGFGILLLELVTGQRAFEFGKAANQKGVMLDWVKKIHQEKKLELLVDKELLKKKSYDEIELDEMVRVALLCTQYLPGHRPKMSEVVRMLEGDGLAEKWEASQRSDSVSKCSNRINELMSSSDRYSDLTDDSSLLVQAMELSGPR
# These are yes or no findings as the source states them, for the method shown. Binding seen in cells or lysates may run through a third protein. Some results given as binding are weak or reduced against the parent protein; the word gives no strength. Tags and fused reporters may be left off the sequences shown.
# B1: His-tagged nuclear shuttle protein (NSP) of Cabbage leaf curl virus (CaLCuV) (protein, UniProt Q96706 1-256)
# chain: MYPTKFRRGVSYSQRRFVSRNQSSKRGTFVRRTDGKRRKGPSSKAHDEPKMKLQRIHENQYGPEFVMTHNSALSTFINFPVLGKIEPNRSRSYIKLNRLSFKGTVKIERVHADVNMDGVISKIEGVFSLVIVVDRKPHLSSTGGLHTFDEIFGARIHSHGNLAITPGLKDRYYVLHVLKRVLSVEKDTLMVDLEGSTTISNRRYNCWASFNDLEHDLCNGVYANISKNAILVYYCWMSDAMSKASTFVSYDLDYLG
# Assays:
# [1] = molecular target: GST fused to the C-terminal kinase domain of normal NIK1 (NSP-interacting kinase 1) (Arabidopsis thaliana) (UniProt Q9LFS4); experiment: pull-down; GST-KDNIK1, GST-T474D or GST previously linked to glutathione-Sepharose beads and incubated with bacterially produced His-NSP; retained proteins analysed by Coomassie-stained SDS-PAGE
# [2] = molecular target: GST fused to the NIK1 kinase domain with Thr-474 replaced by aspartate (Arabidopsis thaliana) (UniProt Q9LFS4); experiment: as above
binder,measurement,setting,value
B1,binding,[1],binds
same,binding,[2],binds
